Results are given in words; binding and its absence hold for the method and conditions named. In cells and extracts the contact can be indirect. Some binding calls cover weakened binding; strength is not graded here.
Legend:
WWP2 = WWP2 (UniProt O00308); assay: co-IP; co-IP from cells (cells not named in the main text); treatments: Ang II, MG132, BAF155 knockdown, BAF155 overexpression
[1] = target: BAF155 (mouse heart) (mouse (endogenous in mouse hearts)) (UniProt P97496); assay: co-IP; co-IP from cardiac tissues of mice with saline or Ang II treatment (BAF155-cWT/cKO, BAF155-WT/TG, WWP2-cWT/cKO)
[2] = target: WWP2 (mouse heart) (mouse (endogenous in mouse hearts)) (UniProt Q9DBH0); assay: as above
BAF155 [3] = target: BAF155 (UniProt Q92922); assay: co-IP; co-IP using a series of truncation variants of PARP1
BAF155 [4] = target: BAF155 (UniProt Q92922); assay: co-IP; co-IP from cells (cells not named in the main text); treatments: Ang II, MG132, BAF155 knockdown, BAF155 overexpression

Amino acid sequences for entries named in this document (tags omitted). A change or cut given only in a name is not applied to a line headed by its entry.
UniProt O00308: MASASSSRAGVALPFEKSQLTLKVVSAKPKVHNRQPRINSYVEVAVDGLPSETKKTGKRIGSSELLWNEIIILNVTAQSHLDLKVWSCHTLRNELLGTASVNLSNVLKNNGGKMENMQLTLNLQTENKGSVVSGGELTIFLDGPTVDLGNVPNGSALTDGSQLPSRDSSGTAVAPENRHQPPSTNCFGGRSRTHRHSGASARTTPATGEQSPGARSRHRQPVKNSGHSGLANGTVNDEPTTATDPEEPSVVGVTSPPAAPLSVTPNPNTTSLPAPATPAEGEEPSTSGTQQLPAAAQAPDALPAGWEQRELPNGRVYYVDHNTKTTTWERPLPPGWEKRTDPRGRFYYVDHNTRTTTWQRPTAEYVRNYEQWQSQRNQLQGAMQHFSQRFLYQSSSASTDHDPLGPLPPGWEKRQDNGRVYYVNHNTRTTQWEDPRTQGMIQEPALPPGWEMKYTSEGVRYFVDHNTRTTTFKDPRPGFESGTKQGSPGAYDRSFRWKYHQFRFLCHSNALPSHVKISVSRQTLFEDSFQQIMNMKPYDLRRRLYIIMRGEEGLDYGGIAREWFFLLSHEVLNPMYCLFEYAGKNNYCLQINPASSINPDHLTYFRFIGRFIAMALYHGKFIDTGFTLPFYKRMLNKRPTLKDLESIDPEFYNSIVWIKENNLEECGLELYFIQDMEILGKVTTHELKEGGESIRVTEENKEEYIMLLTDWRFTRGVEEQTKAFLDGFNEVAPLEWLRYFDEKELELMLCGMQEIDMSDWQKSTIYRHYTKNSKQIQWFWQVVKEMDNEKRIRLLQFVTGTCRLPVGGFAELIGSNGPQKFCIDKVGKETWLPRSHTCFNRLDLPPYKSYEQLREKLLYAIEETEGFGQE
UniProt P97496: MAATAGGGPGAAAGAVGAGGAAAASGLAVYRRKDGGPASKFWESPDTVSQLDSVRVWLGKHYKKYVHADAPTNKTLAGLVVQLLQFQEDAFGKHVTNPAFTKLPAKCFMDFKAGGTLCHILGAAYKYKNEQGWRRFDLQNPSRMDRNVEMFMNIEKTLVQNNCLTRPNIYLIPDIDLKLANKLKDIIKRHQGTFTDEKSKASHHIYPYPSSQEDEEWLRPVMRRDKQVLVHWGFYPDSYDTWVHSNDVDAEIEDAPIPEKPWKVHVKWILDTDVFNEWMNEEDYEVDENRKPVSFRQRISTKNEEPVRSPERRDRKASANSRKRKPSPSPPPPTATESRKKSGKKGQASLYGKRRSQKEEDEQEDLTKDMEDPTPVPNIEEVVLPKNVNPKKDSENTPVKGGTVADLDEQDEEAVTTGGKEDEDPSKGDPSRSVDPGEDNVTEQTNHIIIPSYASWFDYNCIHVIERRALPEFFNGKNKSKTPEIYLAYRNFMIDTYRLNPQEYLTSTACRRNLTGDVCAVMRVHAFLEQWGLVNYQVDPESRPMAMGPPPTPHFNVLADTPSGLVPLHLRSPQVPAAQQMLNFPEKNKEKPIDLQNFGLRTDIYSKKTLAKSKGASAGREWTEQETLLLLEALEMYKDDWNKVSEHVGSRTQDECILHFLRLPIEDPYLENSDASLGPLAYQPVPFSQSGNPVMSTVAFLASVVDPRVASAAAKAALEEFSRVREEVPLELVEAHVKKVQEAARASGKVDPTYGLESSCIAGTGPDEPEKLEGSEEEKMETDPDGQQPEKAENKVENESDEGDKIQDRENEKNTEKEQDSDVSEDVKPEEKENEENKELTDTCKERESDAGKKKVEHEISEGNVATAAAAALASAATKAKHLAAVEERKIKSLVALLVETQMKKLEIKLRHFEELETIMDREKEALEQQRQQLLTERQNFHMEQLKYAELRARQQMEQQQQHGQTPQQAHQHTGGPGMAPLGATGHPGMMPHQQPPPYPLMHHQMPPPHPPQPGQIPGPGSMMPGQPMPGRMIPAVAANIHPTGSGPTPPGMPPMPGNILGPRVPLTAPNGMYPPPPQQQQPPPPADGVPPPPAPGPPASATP
UniProt Q9DBH0: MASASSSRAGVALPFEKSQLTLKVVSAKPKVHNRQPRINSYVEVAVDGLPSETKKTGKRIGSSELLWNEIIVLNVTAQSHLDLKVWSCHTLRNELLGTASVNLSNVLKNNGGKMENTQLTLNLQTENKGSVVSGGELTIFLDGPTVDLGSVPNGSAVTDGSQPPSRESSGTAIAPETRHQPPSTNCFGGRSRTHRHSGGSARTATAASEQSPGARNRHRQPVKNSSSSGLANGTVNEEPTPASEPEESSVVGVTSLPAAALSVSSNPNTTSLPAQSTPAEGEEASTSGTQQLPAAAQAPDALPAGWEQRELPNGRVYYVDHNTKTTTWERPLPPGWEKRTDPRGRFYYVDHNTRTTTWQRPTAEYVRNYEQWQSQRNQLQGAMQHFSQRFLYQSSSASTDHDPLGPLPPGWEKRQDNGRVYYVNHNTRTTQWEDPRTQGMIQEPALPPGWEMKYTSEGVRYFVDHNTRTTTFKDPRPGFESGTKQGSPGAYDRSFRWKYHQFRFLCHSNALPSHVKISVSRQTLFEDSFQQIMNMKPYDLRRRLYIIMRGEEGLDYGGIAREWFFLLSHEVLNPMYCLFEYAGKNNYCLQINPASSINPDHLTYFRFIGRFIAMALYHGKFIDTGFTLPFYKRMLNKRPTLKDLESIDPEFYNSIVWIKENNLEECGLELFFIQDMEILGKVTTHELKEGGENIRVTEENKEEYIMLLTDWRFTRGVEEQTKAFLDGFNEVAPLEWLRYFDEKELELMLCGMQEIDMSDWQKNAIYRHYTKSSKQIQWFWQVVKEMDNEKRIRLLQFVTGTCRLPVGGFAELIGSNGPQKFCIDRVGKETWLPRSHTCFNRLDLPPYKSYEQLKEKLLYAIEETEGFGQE
UniProt Q92922: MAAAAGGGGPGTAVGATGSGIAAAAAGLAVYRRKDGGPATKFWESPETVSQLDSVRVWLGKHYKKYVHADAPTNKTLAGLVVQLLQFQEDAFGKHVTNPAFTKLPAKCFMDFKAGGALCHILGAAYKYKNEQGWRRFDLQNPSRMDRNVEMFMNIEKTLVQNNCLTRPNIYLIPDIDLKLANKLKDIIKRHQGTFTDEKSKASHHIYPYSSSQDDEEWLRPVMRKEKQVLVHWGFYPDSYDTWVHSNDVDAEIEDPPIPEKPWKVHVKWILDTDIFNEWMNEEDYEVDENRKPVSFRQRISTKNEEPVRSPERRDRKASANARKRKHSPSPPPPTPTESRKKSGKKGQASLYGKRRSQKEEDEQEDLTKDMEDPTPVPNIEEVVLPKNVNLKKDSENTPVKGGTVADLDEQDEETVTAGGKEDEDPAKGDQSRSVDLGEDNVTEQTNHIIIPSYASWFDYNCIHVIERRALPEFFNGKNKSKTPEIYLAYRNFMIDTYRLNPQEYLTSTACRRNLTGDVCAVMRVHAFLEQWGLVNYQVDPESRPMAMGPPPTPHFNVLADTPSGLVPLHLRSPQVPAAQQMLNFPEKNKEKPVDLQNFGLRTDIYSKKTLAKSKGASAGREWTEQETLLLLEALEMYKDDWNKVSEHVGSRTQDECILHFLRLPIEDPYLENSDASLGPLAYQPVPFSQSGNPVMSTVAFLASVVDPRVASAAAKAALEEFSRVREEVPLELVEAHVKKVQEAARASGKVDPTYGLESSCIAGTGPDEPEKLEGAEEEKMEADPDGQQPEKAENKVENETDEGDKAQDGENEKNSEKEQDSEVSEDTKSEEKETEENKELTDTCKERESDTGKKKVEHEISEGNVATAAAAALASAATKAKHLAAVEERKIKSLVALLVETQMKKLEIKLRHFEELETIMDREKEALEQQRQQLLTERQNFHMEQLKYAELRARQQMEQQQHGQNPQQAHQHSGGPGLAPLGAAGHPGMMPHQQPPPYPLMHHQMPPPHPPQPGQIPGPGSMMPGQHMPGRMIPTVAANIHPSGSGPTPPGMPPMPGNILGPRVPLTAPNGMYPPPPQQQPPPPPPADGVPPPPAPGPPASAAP
UniProt P11103: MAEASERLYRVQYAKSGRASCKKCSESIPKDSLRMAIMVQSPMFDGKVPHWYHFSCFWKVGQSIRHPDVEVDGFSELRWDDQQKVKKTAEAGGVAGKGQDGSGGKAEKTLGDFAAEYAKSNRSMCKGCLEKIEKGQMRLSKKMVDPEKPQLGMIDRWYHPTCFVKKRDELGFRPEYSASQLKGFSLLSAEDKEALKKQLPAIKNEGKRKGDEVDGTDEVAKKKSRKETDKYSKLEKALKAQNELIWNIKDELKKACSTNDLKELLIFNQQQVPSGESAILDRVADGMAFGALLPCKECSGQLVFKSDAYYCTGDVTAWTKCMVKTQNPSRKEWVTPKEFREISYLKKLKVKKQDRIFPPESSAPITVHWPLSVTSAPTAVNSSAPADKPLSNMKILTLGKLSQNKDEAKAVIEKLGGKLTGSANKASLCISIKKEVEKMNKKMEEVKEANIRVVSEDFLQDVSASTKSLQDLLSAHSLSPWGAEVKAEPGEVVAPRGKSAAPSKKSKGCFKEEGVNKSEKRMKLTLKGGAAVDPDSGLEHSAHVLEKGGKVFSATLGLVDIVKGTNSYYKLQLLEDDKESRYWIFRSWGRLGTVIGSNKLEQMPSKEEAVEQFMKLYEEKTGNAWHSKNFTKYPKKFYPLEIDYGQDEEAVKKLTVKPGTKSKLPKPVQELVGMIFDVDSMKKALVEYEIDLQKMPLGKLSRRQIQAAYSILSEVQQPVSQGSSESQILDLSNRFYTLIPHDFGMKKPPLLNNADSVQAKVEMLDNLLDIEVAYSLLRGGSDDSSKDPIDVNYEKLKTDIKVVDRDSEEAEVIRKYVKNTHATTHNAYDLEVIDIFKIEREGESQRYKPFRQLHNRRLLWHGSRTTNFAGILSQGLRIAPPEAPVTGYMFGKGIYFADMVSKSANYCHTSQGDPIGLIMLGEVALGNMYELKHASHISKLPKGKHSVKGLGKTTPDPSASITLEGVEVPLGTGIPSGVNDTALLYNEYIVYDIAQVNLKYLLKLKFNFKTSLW
UniProt P09874: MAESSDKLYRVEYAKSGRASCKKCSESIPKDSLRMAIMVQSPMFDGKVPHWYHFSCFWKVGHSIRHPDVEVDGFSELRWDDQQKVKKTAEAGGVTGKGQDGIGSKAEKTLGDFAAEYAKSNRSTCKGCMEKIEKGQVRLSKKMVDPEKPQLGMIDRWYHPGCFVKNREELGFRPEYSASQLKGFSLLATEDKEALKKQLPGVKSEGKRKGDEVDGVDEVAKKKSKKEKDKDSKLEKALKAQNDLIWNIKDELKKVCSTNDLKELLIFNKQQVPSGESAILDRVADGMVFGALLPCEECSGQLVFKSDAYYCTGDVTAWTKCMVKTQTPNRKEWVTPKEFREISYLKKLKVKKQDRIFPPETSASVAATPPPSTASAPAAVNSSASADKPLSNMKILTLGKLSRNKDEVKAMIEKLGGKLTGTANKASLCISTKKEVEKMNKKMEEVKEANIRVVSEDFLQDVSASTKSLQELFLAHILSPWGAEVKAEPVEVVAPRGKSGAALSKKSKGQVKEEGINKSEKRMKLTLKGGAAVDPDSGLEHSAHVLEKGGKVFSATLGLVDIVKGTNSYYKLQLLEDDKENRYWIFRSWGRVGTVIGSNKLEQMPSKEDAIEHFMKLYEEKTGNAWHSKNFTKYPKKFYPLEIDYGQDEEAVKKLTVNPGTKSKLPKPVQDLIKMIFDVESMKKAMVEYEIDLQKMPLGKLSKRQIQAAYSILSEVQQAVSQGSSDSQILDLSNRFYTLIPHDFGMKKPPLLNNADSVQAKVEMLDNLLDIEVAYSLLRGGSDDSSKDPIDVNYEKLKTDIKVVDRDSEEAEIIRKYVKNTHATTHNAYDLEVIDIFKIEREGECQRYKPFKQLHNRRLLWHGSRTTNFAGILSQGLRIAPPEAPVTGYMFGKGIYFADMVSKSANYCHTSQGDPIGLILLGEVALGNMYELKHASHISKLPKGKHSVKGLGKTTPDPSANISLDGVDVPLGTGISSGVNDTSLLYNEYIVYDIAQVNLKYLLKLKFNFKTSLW

Substance	binding (WWP2)	binding (BAF155 [3])	other results
BAF155 (from UniProt Q92922 1-1105)	binds		
PARP1 (mouse heart) (from UniProt P11103 1-1013)			binding [1]: binds; binding [2]: binds
PARP1 amino acids 1-203 (Zinc finger domains 1/2) (from UniProt P09874 1-203) (domain or fragment)		binds	
PARP1 amino acids 476-779 (PARP-A-helical domain) (from UniProt P09874 476-779) (domain or fragment)		binds	
Poly(ADP-ribose) polymerase 1 (PARP1) (from UniProt P09874 1-1014)	binds		binding (BAF155 [4]): binds

— publication PMC10167234
